Experimental data: US20230114728A1 (Venatorx Pharmaceuticals, Inc., priority 2019, published 2023)
At least one structure is not confirmed: it was looked up by name or label, or the drawing left a doubt.

The chains behind the UniProt entries cited, without tags or fusion partners. Where a name states a change or a piece, a line headed by the entry shows the natural chain unless it says otherwise.
UniProt G3XD46: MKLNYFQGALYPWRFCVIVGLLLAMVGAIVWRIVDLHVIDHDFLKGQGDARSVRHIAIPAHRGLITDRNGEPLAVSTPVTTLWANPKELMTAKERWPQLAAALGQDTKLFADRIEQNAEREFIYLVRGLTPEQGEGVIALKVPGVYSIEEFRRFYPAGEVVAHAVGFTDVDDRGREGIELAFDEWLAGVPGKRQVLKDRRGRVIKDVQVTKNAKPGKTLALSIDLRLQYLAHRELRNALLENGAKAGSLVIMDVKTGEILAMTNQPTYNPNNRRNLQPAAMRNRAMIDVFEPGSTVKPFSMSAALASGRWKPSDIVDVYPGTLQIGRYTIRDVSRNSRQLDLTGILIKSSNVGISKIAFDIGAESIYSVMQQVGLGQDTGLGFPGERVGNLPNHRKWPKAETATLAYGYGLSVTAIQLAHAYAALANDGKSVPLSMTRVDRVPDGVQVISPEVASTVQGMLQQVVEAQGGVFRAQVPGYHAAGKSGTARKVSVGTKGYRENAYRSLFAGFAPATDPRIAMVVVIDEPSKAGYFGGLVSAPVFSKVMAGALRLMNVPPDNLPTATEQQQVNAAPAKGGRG

Target: T1, P. aeruginosa PBP3 (Pseudomonas aeruginosa, UniProt G3XD46)
T1 construct: made in house
Assay: Bocillin-FL fluorescence polarization competition binding assay, P. aeruginosa PBP3
Details: fluorescence polarization competition binding assay using Bocillin-FL
From the text: Example I: Experimental Method for Penicillin-Binding Protein Binding Assays with Bocillin-FL Via Fluorescence Polarization
To determine the ability of boronic acid-based test PBP inhibitors to bind Penicillin Binding Proteins (PBPs), Bocillin-FL (fluorescently-labeled penicillin V; ThermoFisher Scientific) was used in a fluorescence polarization (FP) competition binding assay to assess inhibitor binding to PBP2, PBP3 or PBP4 from Escherichia coli (K12), PBP3 from Pseudomonas aeruginosa (PA01), PBP1a, PBP2 and PBP3 from Acinetobacter baumannii (ATCC 19606), and PBP2 from Neiserria gonorrheae (FA19). PBPs were cloned and purified as described previously (E. coli PBPs, King, D. T, et al., ACS Infectious Diseases 2015, 1, 175-184; P. aeruginosa PBP3, Han et. al., PNAS 2010, 107 (51), 22002-22007; A. baumannii PBPs, Penwell et. al., Antimicrob. Agents Chemother. 2015, 59 (3), 1680-1689; N. gonorrhoeae PBP2, Singh et. al., J Biol. Chem. 2019, 294 (38), 14020-14032). To establish assay conditions for competition binding, enzyme titration/saturation binding experiments were initially performed. […] FP was measured immediately upon mixing (Excitation, 490 nm; Emission, 520 nm; g-factor, 0.96), using a Cytation3 (BioTek) microplate reader and measured continuously for up to 120 minutes. […] Bocillin-FL was added and the FP immediately measured for up to 60 minutes (90 minutes for E. coli PBP2). […]

`O=C(O)c1c(F)ccc2c1OB(O)[C@@H](NC(=O)C(NC(=O)N1CCN(CCBr)C(=O)C1=O)c1c(F)cc(O)c(O)c1F)C2` (stereo partly drawn) [Example 38, (3R)-3-(2-(4-(2-bromoethyl)-2,3-dioxopiperazine-1-carboxamido)-2-(2,6-difluoro-3,4-dihydroxyphenyl)acetamido)-7-fluoro-2-hydroxy-3,4-dihydro-2H-benzo[e][1,2]oxaborinine-8-carboxylic acid] was tested, and the “P. aeruginosa PBP3 Potency” value was “D (D represents a potency <10 μM)”.
